Experimental data: the supplement of paper PMC3334620
Over roughly 33,000 sequences, “E-score (-0.5 to 0.5)” has its median near -0.016; the highest 2% begin near 0.3. This is one part of the list.

These sequences were tested against T1, Yer184c (UniProt P39961) (assay: PBM E-score (8-mer binding enrichment) (E-score (-0.5 to 0.5)); higher = stronger / more preferred TF binding). Conditions: protein concentration: 100 nM; construct: GST-full length.
T1 sequence: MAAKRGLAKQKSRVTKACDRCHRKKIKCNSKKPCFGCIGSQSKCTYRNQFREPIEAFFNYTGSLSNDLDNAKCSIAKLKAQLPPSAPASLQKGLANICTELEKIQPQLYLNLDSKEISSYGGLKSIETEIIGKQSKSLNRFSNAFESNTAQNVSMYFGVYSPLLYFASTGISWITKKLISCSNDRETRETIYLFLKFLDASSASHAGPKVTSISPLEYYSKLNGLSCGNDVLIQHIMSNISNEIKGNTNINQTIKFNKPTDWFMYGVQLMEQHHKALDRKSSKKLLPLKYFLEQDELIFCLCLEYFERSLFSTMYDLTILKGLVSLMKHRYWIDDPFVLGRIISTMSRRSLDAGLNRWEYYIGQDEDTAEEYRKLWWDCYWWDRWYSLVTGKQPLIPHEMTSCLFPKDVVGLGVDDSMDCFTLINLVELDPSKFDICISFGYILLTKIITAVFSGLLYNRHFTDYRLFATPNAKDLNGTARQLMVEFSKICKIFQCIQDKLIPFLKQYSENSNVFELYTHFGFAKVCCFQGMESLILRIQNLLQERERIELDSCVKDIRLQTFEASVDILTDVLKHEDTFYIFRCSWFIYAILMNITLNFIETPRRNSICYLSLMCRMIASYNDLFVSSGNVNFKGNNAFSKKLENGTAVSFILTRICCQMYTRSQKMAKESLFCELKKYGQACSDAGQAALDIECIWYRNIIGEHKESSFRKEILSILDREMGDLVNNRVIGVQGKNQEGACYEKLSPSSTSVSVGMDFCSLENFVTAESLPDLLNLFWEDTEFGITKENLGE
Summary of the method: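 Detection of bound protein used fluorescent anti-GST, with scans normalised by masliner. The proteins were GST-tagged yeast transcription factors applied at about 100-200 nM to universal all-10-mer Agilent arrays made double-stranded by primer extension. Each ungapped eight-base word, pooled with its reverse complement, was scored with an E-score from the Universal PBM Analysis Suite.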

Sequence | PBM E-score
ATTGCCCG | -0.0614
ATTCTTGA | 0.0607
CATGGCAG | 0.00514
AGCGCTGA | 0.131
CCGCAACA | 0.0725
CGCATCAG | 0.0929
CCGTTCTA | 0.221
TGAAGGAA | 0.0504
CGCGCCAA | 0.149
ACGGGTCG | 0.0501
ATATCACC | 0.093
ATTTAATG | 0.289
ATGTAGCC | -0.275
ACATTGGA | -0.205
AGAGCCGC | 0.0235
ACGAAGCT | -0.0235
AAAGGCTT | -0.112
AATGTTGA | -0.107
TGATAGAA | -0.0483
GATTCTTA | 0.268
AAGTGCTG | -0.0493
GTATATTA | 0.0582
ACTCATTC | 0.172
CGCTATCC | -0.0319
AGGTCTAC | -0.132

Sequence | PBM E-score
TCTCCAAA | 0.0658
AACAACCC | -0.0615
CTGTCCTA | -0.109
GATTCGTA | 0.125
ATTCGTGC | 0.133
CATCGAAG | -0.0421
AATTCTGG | 0.0637
ACTCTAAG | -0.232
CGATTGCA | 0.147
ACTAGTCG | -0.123
CCCCTTAG | -0.178
ATCAGGGA | -0.288
AAGTTGGC | -0.126
ATGCTATG | -0.117
GCTGTTCC | 0.0109
ATCTAGTA | 0.189
GTCCGTAA | 0.142
CCGGAGAA | 0.292
CGTGTGAC | -0.00774
GCCATCCA | -0.043
GCACTCGA | -0.0583
CCTTGGCG | -0.112
CGAATAGA | -0.0142
ACTTATTA | -0.0167
CATAAGCG | -0.169

Sequence | PBM E-score
ACCAGTTC | -0.0613
GAGCTTAA | 0.0203
CCGGTACG | -0.00725
CTTCCACC | -0.17
AGGAGTAA | -7e-05
CTCATTAC | 0.0262
TCCGCCAA | 0.071
GTTTACAA | 0.178
GGCATGCA | 0.0578
ACTTGCTG | -0.0247
ACGGCCTC | -0.0417
AACCCTAC | -0.304
ATTATACG | 0.217
ATGGACCC | -0.132
GGCTCGTA | 0.0416
CAGAGTGC | -0.143
CCCACCCC | -0.129
AGCCTCTA | -0.313
ACATCTTG | -0.222
AGATATTC | 0.0187
AATAAACG | 0.209
CATGTGTA | 0.0748
AGGCCAAG | -0.186
AGGAGCAC | -0.0852
AACAGGGA | 0.125

Sequence | PBM E-score
CGAATGCA | 0.0594
AAGGGATC | -0.0503
AGTCCAGA | -0.0108
AGGAGCTA | -0.239
CGGAGATA | 0.406
ATCCCGTA | 0.103
CAGCACCG | -0.0279
ACAAATAC | 0.133
ATCGGGAC | -0.0229
CGTCTCCA | 0.0836
CCAGACAA | -0.0151
TAACCCGA | 0.128
TACTACGA | 0.0607
TCCTCTAA | -0.0559
TAGGGTGA | -0.104
CTACCCTA | -0.259
CTGAAGAC | -0.0547
CCGAGTAA | 0.302
ACGACTTA | -0.212
GGTCACAC | -0.149
GACTGCAC | -0.133
ACGAAATC | 0.0389
GAACATGC | -0.086
CAATCGCC | 0.0488
AGCGATCG | -0.0963

Sequence | PBM E-score
AATTCAAT | 0.107
ATCAGCAC | 0.08
AGTCGAAC | -0.00875
CGCAAATA | 0.144
CCCTCACC | -0.284
GGGCGTCA | -0.15
GCCGCCAA | 0.0315
GATTTCAC | 0.138
AAGAGGGG | -0.245
CCGCGTCG | 0.0671
GCTTTAAA | 0.00521
GATAATAC | 0.136
AATGTAAG | 0.0266
ATACATAT | 0.255
ACGCAGGA | -0.247
ACCCAATA | -0.0358
AGCGCTGC | -0.161
CAACACAA | 0.112
ATAACATG | 0.0311
GCGCGGCC | 0.177
ACGCCCTG | -0.0895
CATGCGCA | -0.111
AATGGGCT | -0.237
TGGGGTAA | -0.049
CCGACGCA | -0.0732

Rewritten with tabs: entries from further up
Sequence	PBM E-score
CGAATGCA	0.0594
AAGGGATC	-0.0503
AGTCCAGA	-0.0108
AGGAGCTA	-0.239
CGGAGATA	0.406
ATCCCGTA	0.103
CAGCACCG	-0.0279
ACAAATAC	0.133
ATCGGGAC	-0.0229
CGTCTCCA	0.0836
CCAGACAA	-0.0151
TAACCCGA	0.128
TACTACGA	0.0607
TCCTCTAA	-0.0559
TAGGGTGA	-0.104
CTACCCTA	-0.259
CTGAAGAC	-0.0547
CCGAGTAA	0.302
ACGACTTA	-0.212
GGTCACAC	-0.149
GACTGCAC	-0.133
ACGAAATC	0.0389
GAACATGC	-0.086
CAATCGCC	0.0488
AGCGATCG	-0.0963
AATTCAAT	0.107
ATCAGCAC	0.08
AGTCGAAC	-0.00875
CGCAAATA	0.144
CCCTCACC	-0.284
GGGCGTCA	-0.15
GCCGCCAA	0.0315
GATTTCAC	0.138
AAGAGGGG	-0.245
CCGCGTCG	0.0671
GCTTTAAA	0.00521
GATAATAC	0.136
AATGTAAG	0.0266
ATACATAT	0.255
ACGCAGGA	-0.247
ACCCAATA	-0.0358
AGCGCTGC	-0.161
CAACACAA	0.112
ATAACATG	0.0311
GCGCGGCC	0.177
ACGCCCTG	-0.0895
CATGCGCA	-0.111

Four neighbouring records from above:
Sequence | PBM E-score
AGTCGAAC | -0.00875
CGCAAATA | 0.144
CCCTCACC | -0.284
GGGCGTCA | -0.15

Further results

Sequence | PBM E-score
AACCGGAA | 0.34
GTCAACTA | 0.0392
GGCGTTAA | -0.0949
ACAGCGGT | -0.052
ATCACGGA | 0.307
CCGTGTCG | 0.0289
ACAGAGCC | -0.129
CACCAATC | -0.0658
ACGAGTCT | -0.265
CTGGCAGA | 0.0946
CTACGTCA | -0.211
CACGTTAG | -0.271
CCAAAGCG | -0.0768
ATATTGGG | -0.0376
AGTTAACT | 0.0183
CATGTCAA | -0.0624
GAATCAGC | -0.0382
AATGACCC | -0.341
AGAGCGCG | -0.0905
ATCTCAAC | 0.192
CCCTATTA | -0.0889
ACAGGGTG | -0.253
CAGGCCAA | -0.0877
CATCGAAA | 0.0496
ACTCGATA | 0.0187

Sequence | PBM E-score
AATGTCGG | 0.12
AATACGCG | 0.0762
CCCCTATA | -0.155
TATCATCA | 0.0334
AGGGGGCA | -0.298
CGATCCCA | -0.0644
AAGAAACT | -0.0235
ATCTGTTA | 0.148
ATTATGGC | 0.0693
GTGGTATA | 0.0432
CAAAATGA | 0.0065
AACATAAT | 0.17
CCTTATCC | -0.16
CCCCCTGA | -0.435
ACGAGCAA | -0.189
CAATGAAC | 0.0794
ACACCACG | -0.25
CTATCGTA | -0.0389
AGATCCTC | -0.0839
CAATTTTC | 0.0626
ACCATGAG | -0.193
AGCTGGAG | -0.173
